# Substitutions are numbered along the chain they refer to. The list shows a part of the results. For some of these results: At the low end of the ranking the order means little. For some of these results: The exact form of the protein is not confirmed.
# Columns and labels:
# Details in all cases: yeast three-hybrid, YBZ-1, SC-Leu-His + 0.5 mM 3-AT, 4 days
# [1] = target: T1, PUM1 PUF domain R3-THE R4-TFR C935T + R936H + Q939E + N971T + H972F + Q975R (UniProt Q14671)
# T1 sequence: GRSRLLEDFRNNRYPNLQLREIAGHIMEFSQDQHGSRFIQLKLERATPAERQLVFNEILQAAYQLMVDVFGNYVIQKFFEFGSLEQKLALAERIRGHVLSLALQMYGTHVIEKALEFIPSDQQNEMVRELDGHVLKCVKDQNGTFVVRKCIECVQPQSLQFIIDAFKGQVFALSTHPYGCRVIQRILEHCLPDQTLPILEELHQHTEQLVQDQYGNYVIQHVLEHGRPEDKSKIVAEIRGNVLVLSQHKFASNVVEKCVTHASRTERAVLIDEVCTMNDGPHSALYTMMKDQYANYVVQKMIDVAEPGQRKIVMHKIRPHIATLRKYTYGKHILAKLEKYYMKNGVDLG
# [2] = target: T2, PUM1 PUF domain R3-THE R4-TFR R7-NPG C935T + R936H + Q939E + N971T + H972F + Q975R + S1079N + N1080P + E1083G (Homo sapiens) (UniProt Q14671)
# T2 sequence: T1 sequence with S252N, N253P, E256G
# [3] = target: T3, PUM1 PUF domain R3-THE R4-TFR R7-NPG C935T + R936H + Q939E + N971T + H972F + Q975R + S1079N + N1080P + E1083G (UniProt Q14671)
# T3 sequence: T1 sequence with S252N, N253P, E256G
# [4] = target: T4, PUM1 PUF domain R5-PHQ R6-SWD C1007P + R1008H + N1043S + Y1044W + Q1047D (UniProt Q14671)
# T4 sequence: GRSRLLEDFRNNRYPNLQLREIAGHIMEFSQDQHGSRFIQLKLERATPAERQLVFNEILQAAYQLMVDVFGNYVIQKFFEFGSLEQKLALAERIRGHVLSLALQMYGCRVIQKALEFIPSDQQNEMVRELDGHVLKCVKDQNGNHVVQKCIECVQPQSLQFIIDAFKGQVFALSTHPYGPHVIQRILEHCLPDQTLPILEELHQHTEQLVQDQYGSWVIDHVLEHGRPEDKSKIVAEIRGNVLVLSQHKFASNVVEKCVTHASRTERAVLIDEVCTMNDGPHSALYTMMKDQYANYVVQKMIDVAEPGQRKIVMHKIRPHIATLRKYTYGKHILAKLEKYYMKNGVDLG
# [5] = target: T5, PUM1 PUF domain R6-SWD R7-NPG N1043S + Y1044W + Q1047D + S1079N + N1080P + E1083G (Homo sapiens) (UniProt Q14671)
# T5 sequence: T4 sequence with P180C, H181R, S252N, N253P, E256G
sequence,measurement,setting,value
GGCUAGAACUAGUGGAUCCCCCGGCGCCCGGCGGCUCGAGCCCGGGUAAGUUUACAAGGUCUGCAUGCCGCCGGGCGCCAUGCCUGCAGGUCGACUCUAGAAAACAUG,binding signal (log2 enrichment (interaction score)),[1],< -7.33
same,binding signal (log2 enrichment (interaction score)),[2],< -1.63
GGCUAGAACUAGUGGAUCCCCCGGCGCCCGGCGGCUCGAGCCCGGGUAAGUUUGCCUAGUCUGCAUGCCGCCGGGCGCCAUGCCUGCAGGUCGACUCUAGAAAACAUG,binding signal (log2 enrichment (interaction score)),[1],-6.75
same,binding signal (log2 enrichment (interaction score)),[2],-0.72
GGCUAGAACUAGUGGAUCCCCCGGCGCCCGGCGGCUCGAGCCCGGGUAAGUUUAAGCGGUCUGCAUGCCGCCGGGCGCCAUGCCUGCAGGUCGACUCUAGAAAACAUG,binding signal (log2 enrichment (interaction score)),[1],-5.91
same,binding signal (log2 enrichment (interaction score)),[2],-1.95
GGCUAGAACUAGUGGAUCCCCCGGCGCCCGGCGGCUCGAGCCCGGGUAAGUAUGCGACGUCUGCAUGCCGCCGGGCGCCAUGCCUGCAGGUCGACUCUAGAAAACAUG,binding signal (log2 enrichment (interaction score)),[1],-7.92
same,binding signal (log2 enrichment (interaction score)),[3],-2.07
GGCUAGAACUAGUGGAUCCCCCGGCGCCCGGCGGCUCGAGCCCGGGUAAGGGUAAGAUGUCUGCAUGCCGCCGGGCGCCAUGCCUGCAGGUCGACUCUAGAAAACAUG,binding signal (log2 enrichment (interaction score)),[1],-6.58
GGCUAGAACUAGUGGAUCCCCCGGCGCCCGGCGGCUCGAGCCCGGGUAAGUACACGUCGUCUGCAUGCCGCCGGGCGCCAUGCCUGCAGGUCGACUCUAGAAAACAUG,binding signal (log2 enrichment (interaction score)),[1],-8.24
same,binding signal (log2 enrichment (interaction score)),[2],-1.62
GGCUAGAACUAGUGGAUCCCCCGGCGCCCGGCGGCUCGAGCCCGGGUAAGUGAAAGUAGUCUGCAUGCCGCCGGGCGCCAUGCCUGCAGGUCGACUCUAGAAAACAUG,binding signal (log2 enrichment (interaction score)),[1],-7.11
same,binding signal (log2 enrichment (interaction score)),[3],< -2.15
GGCUAGAACUAGUGGAUCCCCCGGCGCCCGGCGGCUCGAGCCCGGGUAAGCCAAACUAGUCUGCAUGCCGCCGGGCGCCAUGCCUGCAGGUCGACUCUAGAAAACAUG,binding signal (log2 enrichment (interaction score)),[1],-7.34
same,binding signal (log2 enrichment (interaction score)),[2],-1.69
same,binding signal (log2 enrichment (interaction score)),[4],< -7.96
GGCUAGAACUAGUGGAUCCCCCGGCGCCCGGCGGCUCGAGCCCGGGUAAGUGGACGUGGUCUGCAUGCCGCCGGGCGCCAUGCCUGCAGGUCGACUCUAGAAAACAUG,binding signal (log2 enrichment (interaction score)),[1],-7.29
GGCUAGAACUAGUGGAUCCCCCGGCGCCCGGCGGCUCGAGCCCGGGUAAGGGUGCGUAGUCUGCAUGCCGCCGGGCGCCAUGCCUGCAGGUCGACUCUAGAAAACAUG,binding signal (log2 enrichment (interaction score)),[1],< -7.03
same,binding signal (log2 enrichment (interaction score)),[3],-2.2
GGCUAGAACUAGUGGAUCCCCCGGCGCCCGGCGGCUCGAGCCCGGGUAAGUGUUACCAGUCUGCAUGCCGCCGGGCGCCAUGCCUGCAGGUCGACUCUAGAAAACAUG,binding signal (log2 enrichment (interaction score)),[1],-7.65
same,binding signal (log2 enrichment (interaction score)),[3],-2.19
GGCUAGAACUAGUGGAUCCCCCGGCGCCCGGCGGCUCGAGCCCGGGUAAGUGGAACGAGUCUGCAUGCCGCCGGGCGCCAUGCCUGCAGGUCGACUCUAGAAAACAUG,binding signal (log2 enrichment (interaction score)),[1],-7.09
GGCUAGAACUAGUGGAUCCCCCGGCGCCCGGCGGCUCGAGCCCGGGUAAGAGCAAGACGUCUGCAUGCCGCCGGGCGCCAUGCCUGCAGGUCGACUCUAGAAAACAUG,binding signal (log2 enrichment (interaction score)),[1],< -6.61
GGCUAGAACUAGUGGAUCCCCCGGCGCCCGGCGGCUCGAGCCCGGGUAAGCUUAAGCAGUCUGCAUGCCGCCGGGCGCCAUGCCUGCAGGUCGACUCUAGAAAACAUG,binding signal (log2 enrichment (interaction score)),[1],< -6.1
same,binding signal (log2 enrichment (interaction score)),[2],< -1.43
GGCUAGAACUAGUGGAUCCCCCGGCGCCCGGCGGCUCGAGCCCGGGUAAGUUAACGGAGUCUGCAUGCCGCCGGGCGCCAUGCCUGCAGGUCGACUCUAGAAAACAUG,binding signal (log2 enrichment (interaction score)),[1],-6.99
same,binding signal (log2 enrichment (interaction score)),[2],-1.25
same,binding signal (log2 enrichment (interaction score)),[5],-1.48
GGCUAGAACUAGUGGAUCCCCCGGCGCCCGGCGGCUCGAGCCCGGGUAAGUGGAAUUAGUCUGCAUGCCGCCGGGCGCCAUGCCUGCAGGUCGACUCUAGAAAACAUG,binding signal (log2 enrichment (interaction score)),[1],-6.67
GGCUAGAACUAGUGGAUCCCCCGGCGCCCGGCGGCUCGAGCCCGGGUAAGUUUUCUUUGUCUGCAUGCCGCCGGGCGCCAUGCCUGCAGGUCGACUCUAGAAAACAUG,binding signal (log2 enrichment (interaction score)),[1],-6.13
same,binding signal (log2 enrichment (interaction score)),[3],-2.67
GGCUAGAACUAGUGGAUCCCCCGGCGCCCGGCGGCUCGAGCCCGGGUAAGUUUAUGCAGUCUGCAUGCCGCCGGGCGCCAUGCCUGCAGGUCGACUCUAGAAAACAUG,binding signal (log2 enrichment (interaction score)),[1],-6.67
same,binding signal (log2 enrichment (interaction score)),[3],< -2.41
GGCUAGAACUAGUGGAUCCCCCGGCGCCCGGCGGCUCGAGCCCGGGUAAGUAUACGCAGUCUGCAUGCCGCCGGGCGCCAUGCCUGCAGGUCGACUCUAGAAAACAUG,binding signal (log2 enrichment (interaction score)),[1],-7.73
same,binding signal (log2 enrichment (interaction score)),[2],-1.6
GGCUAGAACUAGUGGAUCCCCCGGCGCCCGGCGGCUCGAGCCCGGGUAAGUCUAAGUAGUCUGCAUGCCGCCGGGCGCCAUGCCUGCAGGUCGACUCUAGAAAACAUG,binding signal (log2 enrichment (interaction score)),[1],-7.77
same,binding signal (log2 enrichment (interaction score)),[2],-1.86
same,binding signal (log2 enrichment (interaction score)),[4],-9.25
GGCUAGAACUAGUGGAUCCCCCGGCGCCCGGCGGCUCGAGCCCGGGUAAGUUUACGUCGUCUGCAUGCCGCCGGGCGCCAUGCCUGCAGGUCGACUCUAGAAAACAUG,binding signal (log2 enrichment (interaction score)),[1],-6.46
same,binding signal (log2 enrichment (interaction score)),[3],-2.01

# Two entries picked at random from those above:
sequence,measurement,setting,value
GGCUAGAACUAGUGGAUCCCCCGGCGCCCGGCGGCUCGAGCCCGGGUAAGUUUUCUUUGUCUGCAUGCCGCCGGGCGCCAUGCCUGCAGGUCGACUCUAGAAAACAUG,binding signal (log2 enrichment (interaction score)),[1],-6.13
GGCUAGAACUAGUGGAUCCCCCGGCGCCCGGCGGCUCGAGCCCGGGUAAGUUUAAGCGGUCUGCAUGCCGCCGGGCGCCAUGCCUGCAGGUCGACUCUAGAAAACAUG,binding signal (log2 enrichment (interaction score)),[1],-5.91

# Source: publication PMC8384837
